The values below come from US20250134867A1, “METHOD FOR MODULATING LIPID METABOLISM, AMELIORATING NON-ALCOHOLIC FATTY LIVER DISEASE AND METABOLIC SYNDROME BY USING 6-METHOXYBENZOXAZOLINONE” (Taichung District Agricultural Research and Extension …, priority 2023, published 2025).

For this data set, the system named is HFD-induced obese C57BL/6J mice. Description: Body weight gain, food intake and food efficiency ratio in HFD-induced obese mice. Format: in vivo. As to conditions: 12 weeks, compared to the HFD group. The text has this:
To determine the effect of CX (Sigma, Inc., USA) on obesity and non-alcoholic fatty liver disease (NAFLD) in vivo, we established an experimental approach using HFD-induced obese C57BL/6J mice. CX was suspended in 0.5% methylcellulose solution for oral administration. The animals used in the examples are described below. 5-week-old male C57BL/6J mice were purchased from The National Laboratory Animal Center, Taipei, Taiwan and were maintained in a temperature-controlled room on a 12-h light-dark cycle. They were housed with four per cage and had free access to food and drinking water. Mice fed with a standard diet and adapted to the environment for 1 week were subsequently divided randomly into five groups. The ND group (n=8) continued on the same diet, whereas the other four groups (n=8 per group) were switched to the HFD (494 kcal/100 g, 45% energy as fat; TestDiet Inc., USA). Among the four HFD groups, three groups started to receive CX at 10 mg/kg/day (CX10 group), CX at 30 mg/kg/day (CX30 group), and epigallocatechin gallate (EGCG) (Sigma, Inc., USA) at 30 mg/kg/day (EGCG30 group) by oral gavage. EGCG was suspended in 0.5% methylcellulose solution for oral administration. Food consumption and weight gain were measured daily and weekly, respectively. After 12 weeks, all mice were sacrificed. […]

As for `COc1ccc2[nH]c(=O)oc2c1` [CX, 6-methoxybenzoxazolinone], the food intake result by setting is: (10 mg/kg/day oral gavage) “almost equal food intake”; (30 mg/kg/day oral gavage) “almost equal food intake”.
